No constants are given. Whether binding was seen depends on the method and setting. Some results given as binding are weak or reduced against the parent protein; the word gives no strength.

The chains behind the UniProt entries cited, without tags or fusion partners. Residues count along the entry.
UniProt P01375, residues 77-233: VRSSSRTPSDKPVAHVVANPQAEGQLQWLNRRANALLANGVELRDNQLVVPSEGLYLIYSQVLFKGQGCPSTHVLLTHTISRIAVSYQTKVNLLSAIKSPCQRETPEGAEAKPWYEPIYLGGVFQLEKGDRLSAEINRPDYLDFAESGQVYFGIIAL
UniProt P51742, residues 77-233: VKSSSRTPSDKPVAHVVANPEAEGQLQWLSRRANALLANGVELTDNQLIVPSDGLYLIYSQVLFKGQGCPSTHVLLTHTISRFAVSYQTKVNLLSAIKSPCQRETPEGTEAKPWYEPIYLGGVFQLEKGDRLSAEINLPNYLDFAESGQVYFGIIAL

In patent US20150125450A1 (published 2015) one finds binding data, which are given here for one molecule.

The target of one experiment is human TNF-α (human, UniProt P01375 77-233). Put plainly: ELISA. On the technique in general: ELISA stands for enzyme-linked immunosorbent assay.
A further experiment has as its target canine TNF-α (canine) (UniProt P51742). Put plainly: ELISA.

B1: chimeric 4C9 antibody (chimeric anti-TNF-α clone 6A9) (antibody, V domains shown)
VH: VQLQESGPSLVKPSQTLSLTCSVTGDSITSGFWNWIRKFPGNKFEYMGYISYSGRTYYNPSLKSRLSITRDTSKNQFYLQLNSVTAEDTATYYCARDANYVLDYWGQGTTLTVSS
VL: DIQLTQSPSSLAMSVGQKVTMNCKSSQSLLNSSTQKNYLAWFQQKPGQSPKLLVYFASARESGVPDRFIGSGSGTDFTLTISSVQAEDLADYFCQQHYRTPFTFGSGTKLEIKR
notes: also called cIgG-anti-TNF-α
On to B1, for which the binding result with human TNF-α and with canine TNF-α (canine) was “binds” throughout.
